Measurements taken from paper PMC12323259.
No constants are given. Whether binding was seen depends on the method and setting. In cells and extracts the contact can be indirect. Some results given as binding are weak or reduced against the parent protein; the word gives no strength.

Amino acid sequences for entries named in this document (tags omitted).
UniProt Q06609: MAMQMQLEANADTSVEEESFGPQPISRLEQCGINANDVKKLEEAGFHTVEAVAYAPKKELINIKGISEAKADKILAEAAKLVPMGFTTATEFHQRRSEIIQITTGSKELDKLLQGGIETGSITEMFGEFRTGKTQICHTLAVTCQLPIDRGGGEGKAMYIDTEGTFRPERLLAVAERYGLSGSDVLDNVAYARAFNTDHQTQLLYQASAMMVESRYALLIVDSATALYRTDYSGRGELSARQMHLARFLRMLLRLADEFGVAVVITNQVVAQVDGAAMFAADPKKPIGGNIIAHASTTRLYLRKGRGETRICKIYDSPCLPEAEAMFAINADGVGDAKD

Biological target: myc-tagged RAD51 (human) (UniProt Q06609)
Test: co-IP; lysate of MDA-MB-231 and MDA-MB-453 cells transfected with pcDNA3.1_myc_RAD51, treated with 0.1 µM IVA and/or 5 µM OLA for 48 h; anti-myc or anti-mouse IgG at 4 °C overnight, Dynabeads; binding buffer Tris-Cl pH 7.4, 100 mM NaCl, 0.5% NP-40, 0.5% Triton X-100, 10% glycerol; western blot

binding: binds
B1: FBXO24 (protein, UniProt O75426 1-580)
chain: MGEKAVPLLRRRRVKRSCPSCGSELGVEEKRGKGNPISIQLFPPELVEHIISFLPVRDLVALGQTCRYFHEVCDGEGVWRRICRRLSPRLQDQGSGVRPWKRAAILNYTKGLYFQAFGGRRRCLSKSVAPLLAHGYRRFLPTKDHVFILDYVGTLFFLKNALVSTLGQMQWKRACRYVVLCRGAKDFASDPRCDTVYRKYLYVLATREPQEVVGTTSSRACDCVEVYLQSSGQRVFKMTFHHSMTFKQIVLVGQETQRALLLLTEEGKIYSLVVNETQLDQPRSYTVQLALRKVSHYLPHLRVACMTSNQSSTLYVTDQGGVYFEVHTPGVYRDLFGTLQAFDPLDQQMPLALSLPAKILFCALGYNHLGLVDEFGRIFMQGNNRYGQLGTGDKMDRGEPTQVCYLQRPITLWCGLNHSLVLSQSSEFSKELLGCGCGAGGRLPGWPKGSASFVKLQVKVPLCACALCATRECLYILSSHDIEQHAPYRHLPASRVVGTPEPSLGARAPQDPGGMAQACEEYLSQIHSCQTLQDRTEKMKEIVGWMPLMAAQKDFFWEALDMLQRAEGGGGGVGPPAPET
